The other results are listed elsewhere or left out. These are further read-outs of the screen, such as a control signal, another cell line or another target. No call is given for them. The list favours compounds with an active or inconclusive main result. Words in brackets tell the shape of the fitted curve; partial curves, single points and poor fits give uncertain potencies.
Assay: qHTS Assay to Find Inhibitors of Chronic Active B-Cell Receptor Signaling
Conditions: ABC-DLBCL IkBa-CBG/CBR reporter, luminescence ratio (green luciferase fused to IkBa over red control in TMD8 lymphoma cells), 4 h
Procedure, shortened: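 TMD8 human ABC-DLBCL cells with doxycycline-inducible IκBα–green luciferase fusion and unfused red luciferase, in 0.5% FBS medium; compounds up to 46 uM, 4 h at 37C. Green/red luminescence ratio, filter-overlap corrected, fitted to concentration-response curves.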

[1] = measured here: CBR red luminescence, cell number
[2] = measured here: IkBa-CBG green luminescence

For `CC1=CC(C)(C)N(S(=O)(=O)c2ccc(C)cc2)c2ccc(C)cc21`, the AC50 [1] was 9.2 µM [rising, partial curve, poor fit] and the AC50 [2] was 8.2 µM [falling, partial curve].

In the case of `Cc1cc(C)c2oc(-c3ccc(Cl)c(NC(=O)c4ccc(C#N)cc4F)c3)nc2c1`, the AC50 [1] is reported as 29.1 µM [rising, single point].

For `O=C(CN1CCCCCCC1)N/N=C/c1ccc(F)cc1F`, the AC50 [1] was 0.291 µM [rising, partial curve, poor fit].

In the case of `O=C(O)c1cc(-n2[nH]c(=O)c3ccccc3c2=O)ccc1Cl`, the AC50 [1] is reported as 14.1 µM [falling, partial curve].

For `O=C1c2ccccc2NC(c2ccccc2)N1/N=C/c1ccccc1` (configuration not stated), the AC50 [1] was 20 µM [falling, partial curve, poor fit].

With `CSC(SC)=C(C#N)C(=O)c1ccccc1` the AC50 [1] was 15.8 µM [falling, single point].

In the case of `Cc1cc(C(=O)Nc2ccccn2)cs1`, the AC50 [1] is reported as 29.1 µM [falling, single point].

In the case of `O=C(Nc1ccc(F)c(F)c1)C1CCCCC1`, the AC50 [1] is reported as 29.1 µM [rising, single point].

For `O=C1CSC(c2cn(-c3ccccc3)nc2-c2cc3ccccc3o2)N1Cc1ccccc1` (configuration not stated), the AC50 [1] was 10.3 µM [rising, partial curve, poor fit].

In the case of `CCCOc1ccc(C(=O)C(CN2CCOCC2)c2ccccc2)cc1` (configuration not stated), the AC50 [1] is reported as 9.2 µM [falling, partial curve].

In the case of `Nc1[nH]n(-c2ccccc2)c(=O)c1N=Nc1ccc2ncsc2c1`, the AC50 [1] is reported as 8.91 µM [falling, partial curve, poor fit] and the AC50 [2] is reported as 0.316 µM [rising, full curve, poor fit].

With `COc1ccc(Nc2c([N+](=O)[O-])ccc3c2=NC2(CCCCC2)N=3)cc1` the AC50 [1] was 17.8 µM [rising, partial curve, poor fit].

In the case of `COC(=O)c1ccc(Sc2nnnn2-c2ccccc2)c([N+](=O)[O-])c1`, the AC50 [1] is reported as 35.5 µM [falling, single point].

In the case of `O=C1CN(C(=O)CSc2nc3cc(Cl)ccc3c(=O)n2Cc2ccccc2)c2ccccc2N1`, the AC50 [1] is reported as 6.51 µM [falling, single point].

For `O=C1N/C(=N/c2ccccn2)SC1Cc1ccccc1` (configuration not stated), the AC50 [1] was 35.5 µM [falling, single point].

With `CCOC(=O)Cc1ccc(NCc2ccc(Cl)cc2)cc1` the AC50 [1] was 14.1 µM [rising, single point].

In the case of `COCCCNC(=O)/C(C#N)=C/c1c(N2CCN(c3ccc(OC)cc3)CC2)nc2c(C)cccn2c1=O`, the AC50 [1] is reported as 35.5 µM [falling, single point].

In the case of `CCOC(=O)Cc1csc(NC(=O)c2cc(C)cc(C)c2)n1`, the AC50 [1] is reported as 17.8 µM [falling, single point].

With `Cc1ccc(NC(=S)c2ccc(N(C)C)cc2)cc1` the AC50 [1] was 29.1 µM [falling, single point].

With `Cc1noc(/C=C/c2ccco2)c1S(=O)(=O)N1CCC(C(=O)N2c3ccccc3CC2C)CC1` (configuration not stated) the AC50 [1] was 3.55 µM [falling, single point].

In the case of `Cc1c(Cl)c([N+](=O)[O-])nn1CC(=O)NCc1cccs1`, the AC50 [1] is reported as 29.1 µM [rising, single point].

For `O=C(CSc1nc2ccccc2nc1N1CCCCC1)N1CCN(c2ccccc2)CC1`, the AC50 [1] was 8.91 µM [falling, partial curve, poor fit].

For `COc1ccc(C(C[N+](=O)[O-])c2c(C)[nH]n(-c3ccccc3)c2=O)cc1` (configuration not stated), the AC50 [1] was 17.8 µM [rising, partial curve] and the AC50 [2] was 25.1 µM [falling, single point].

In the case of `COc1ccc(C2c3c(ncn(CCCO)c3=N)Oc3ccc4ccccc4c32)cc1OC` (configuration not stated), the AC50 [1] is reported as 35.5 µM [falling, single point].

In the case of `Cc1cc(/C=C(\C#N)C(=O)N2CCOCC2)c(C)n1C1CCCC1`, the AC50 [1] is reported as 5.62 µM [rising, full curve, poor fit].

With `NC1=NC(c2ccc(Cl)cc2)C(C(=O)c2ccccc2)N1` (configuration not stated) the AC50 [1] was 35.5 µM [rising, single point] and the AC50 [2] was 25.1 µM [falling, single point].

For `O=C(NC1CCCC1)c1cc(-c2cccs2)on1`, the AC50 [1] was 0.1 µM [falling, full curve, poor fit].

For `Cc1cccc(NC(=O)Cn2c(=O)oc3ccccc32)c1`, the AC50 [1] was 2.51 µM [falling, full curve].

In the case of `CC1(c2nnc(-c3ccc(Cl)cc3)o2)CC(c2c(Cl)cccc2Cl)=NO1` (configuration not stated), the AC50 [1] is reported as 2.82 µM [rising, full curve, poor fit].

For `CCOC(=O)c1ccc(NC(=S)NNC(=O)C2(C)CC2(Cl)Cl)cc1` (configuration not stated), the AC50 [1] was 3.26 µM [falling, partial curve].

With `Clc1ccccc1Cn1nnc2c(Nc3ccccc3)ncnc21` the AC50 [1] was 12.6 µM [falling, partial curve, poor fit].

In the case of `COc1ccccc1CN1CCNC(=O)C1CC(=O)N(C)Cc1cnccn1` (configuration not stated), the AC50 [1] is reported as 15.8 µM [rising, single point].

For `Cc1ccc(OCCCC(=O)Nc2ccc(Cl)c(S(=O)(=O)N3CCOCC3)c2)cc1`, the AC50 [1] was 29.1 µM [falling, single point].

With `Cc1cc(=O)[nH]c(SCC(=O)Nc2ccccc2[N+](=O)[O-])n1` the AC50 [1] was 22.4 µM [rising, single point].

For `CCOC(=O)c1cc2sccc2n1CC(=O)C(C)(C)C`, the AC50 [1] was 5.62 µM [rising, single point].

In the case of `O=[N+]([O-])c1ccc(-c2cnc(SC(c3ccccc3)c3ccccc3)[nH]2)cc1`, the AC50 [1] is reported as 20.6 µM [falling, partial curve, poor fit].

With `CCOc1ccccc1C1CC(c2cccs2)=NN1S(C)(=O)=O` (configuration not stated) the AC50 [1] was 12.6 µM [rising, single point].

For `CN(C)c1ccc(/C=C/c2cccc[n+]2[O-])cc1`, the AC50 [1] was 35.5 µM [falling, single point].

In the case of `COc1ccc(-c2ccc(C#N)c(OC)n2)cc1`, the AC50 [1] is reported as 11.2 µM [rising, partial curve, poor fit].

With `COC(=O)c1ccc(C)c(-n2c(=O)n(Cc3ccccc3)c(=O)c3[nH]cnc32)c1` the AC50 [1] was 2.51 µM [rising, partial curve, poor fit] and the AC50 [2] was 3.55 µM [falling, partial curve, poor fit].

For `Cn1c2ccccc2c2ncn(CCC3=CCCCC3)c(=O)c21`, the AC50 [1] was 35.5 µM [falling, single point].

For `COCCCNC(=O)c1cc2c(=O)n(C)c3ccccc3c2n1C`, the AC50 [1] was 10.3 µM [rising, partial curve, poor fit].

For `NC(=O)C1CCN(CC(O)COCc2ccccc2Cl)CC1` (configuration not stated), the AC50 [1] was 10 µM [rising, partial curve, poor fit].

For `CCOc1ccc(N=Nc2ccc(O)c3ncccc23)cc1`, the AC50 [1] was 35.5 µM [rising, single point].

With `Cc1cc(C)cc(NC(=O)CSc2nc3nc(C)cc(C)c3c(=O)[nH]2)c1` the AC50 [1] was 20.6 µM [falling, single point].

In the case of `O=C(COC(=O)c1ccc(S(=O)(=O)N2CCc3ccccc3C2)cc1)NC(=O)NCc1ccco1`, the AC50 [1] is reported as 29.1 µM [rising, single point].

For `O=C(c1cccs1)c1coc2ccc(O)cc12`, the AC50 [1] was 29.1 µM [falling, single point].

With `Cc1cc(-c2nnc(SCC(=O)Nc3nccs3)o2)no1` the AC50 [1] was 3.16 µM [rising, full curve, poor fit].

With `CCN(CCCNC(=O)CCCCn1c(=O)[nH]c2ccccc2c1=O)c1ccccc1` the AC50 [1] was 6.31 µM [falling, single point].

With `Cc1cc(C)c[n+](-c2nc3ccccc3nc2[N-]S(=O)(=O)c2ccc(Cl)cc2)c1` the AC50 [1] was 18.4 µM [falling, single point].

With `Cc1cc(C)c(NC(=O)CSc2nc3ccc(N4C(=O)c5ccccc5C4=O)cc3s2)c(C)c1` the AC50 [1] was 1 µM [rising, full curve].

In the case of `O=C1CC2C(CC(OC(=O)c3ccc(-c4ccccc4)cc3)C2CO)O1` (configuration not stated), the AC50 [1] is reported as 2.91 µM [rising, full curve, poor fit].

In the case of `CCn1c2ccccc2c2cc(NC(=O)COC(=O)C3CCC(=O)N3)ccc21` (configuration not stated), the AC50 [1] is reported as 3.16 µM [rising, single point].

In the case of `c1cncc(-c2nc3cc4ccccc4cc3[nH]2)c1`, the AC50 [1] is reported as 35.5 µM [falling, partial curve, poor fit].

For `COc1cc(C#Cc2c(-c3cncn3C)n(C)c3ccc(-c4ccc(OC)nc4)cc23)cc(OC)c1`, the AC50 [1] was 5.17 µM [falling, partial curve, poor fit].

With `COc1ccc(-n2nc3c(N4CCC(C(=O)NCc5cccc(C)c5)CC4)nnc(C)c3c2C)cc1` the AC50 [1] was 17.8 µM [falling, single point].

For `O=S(=O)(c1cccs1)N1CCN(c2ccc(Cl)cc2)CC1`, the AC50 [1] was 4.47 µM [rising, full curve, poor fit].

With `O=C(Nc1ccc(Cl)cc1)N1CCc2[nH]c3ccccc3c2C1` the AC50 [1] was 5.62 µM [falling, full curve, poor fit].

In the case of `Cc1ccc(/C=C2\SC(=S)N(CCC(=O)NNS(=O)(=O)c3ccccc3)C2=O)cc1`, the AC50 [1] is reported as 3.55 µM [falling, partial curve, poor fit].

For `COc1cc2ccccc2cc1C(=O)Nc1cc(C)ccn1`, the AC50 [1] was 14.1 µM [falling, single point].

With `Cc1ccc2oc(=O)c(/C=C(\O)c3cccs3)nc2c1` the AC50 [1] was 6.31 µM [rising, single point].

For `CS(=O)(=O)c1ccc2nc(NC(=O)c3ccc(NS(=O)(=O)c4cccc([N+](=O)[O-])c4)cc3)sc2c1`, the AC50 [1] was 12.6 µM [falling, partial curve, poor fit].

Reference: PubChem BioAssay AID493014 (National Center for Advancing Translational Sciences (NCATS), 2011)
